Laboratory results taken from patent US20230220095A1 (ALETA BIOTHERAPEUTICS, published 2023).
These are yes or no findings as the source states them, for the method shown. Some entries that bind do so weakly or less than the wild type. Tags and fused reporters may be left off the sequences shown.

Sequences of proteins named here, by UniProt entry; tags and fusion partners are left off.
UniProt P28907: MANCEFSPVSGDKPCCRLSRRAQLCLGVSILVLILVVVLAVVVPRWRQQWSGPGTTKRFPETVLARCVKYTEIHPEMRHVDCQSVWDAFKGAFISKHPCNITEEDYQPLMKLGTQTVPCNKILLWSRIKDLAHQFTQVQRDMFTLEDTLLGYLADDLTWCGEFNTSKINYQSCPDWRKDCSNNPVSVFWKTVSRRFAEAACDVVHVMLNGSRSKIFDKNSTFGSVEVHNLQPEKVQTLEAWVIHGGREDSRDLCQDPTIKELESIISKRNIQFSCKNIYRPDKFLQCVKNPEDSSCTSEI

Tests used:
[1] = target: CD38 on Daudi cells (human) (UniProt P28907); test: flow cytometry on Daudi cells, anti-His-PE detection
[2] = target: CD38 on Daudi cells (human) (UniProt P28907); test: flow cytometry on Daudi cells, supernatant titration
[3] = target: CD38 on Daudi cells (human) (UniProt P28907); test: flow cytometry on Daudi cells, anti-BCMA-PE detection

binding [1]: binds | binding [2]: binds | binding [3]: binds
B1: BCMA-anti-CD38 fusion protein, construct #494 (BCMA ECD C-terminal to the anti-CD38 scFv, C-terminal His tag) (other)
chain: DIQMTQSPSSLSASVGDRVTITCRASQGIRSWLAWYQQKPEKAPKSLIYAASSLQSGVPSRFSGSGSGTDFTLTISSLQPEDFATYYCQQYNSYPLTFGGGTKVEIKGGGGSGGGGSGGGGSGGGGSQVQLVQSGAEVKKPGSSVKVSCKAFGGTFSSYAISWVRQAPGQGLEWMGRIIRFLGIANYAQKFQGRVTLIADKSTNTAYMELSSLRSEDTAVYYCAGEPGERDPDAVDIWGQGTMVTVSSGGGGSGGGGSGGGGSGGGGSMLQMAGQCSQNEYFDSLLHACIPCQLRCSSNTPPLTCQRYCNASVTNSVKGTNAHHHHHH
notes: also called A494
